Results are given in words; binding and its absence hold for the method and conditions named. Binding seen in cells or lysates may run through a third protein. Some entries that bind do so weakly or less than the wild type.
Columns and labels:
[1] = molecular target: RUVBL2 (human (endogenous in A549)) (UniProt Q9Y230); assay: co-IP; A549 lysates immunoprecipitated with RUVBL2 antibody (Dynabeads Co-IP kit), blotted for β-catenin and HIF1-α; cells cultured under hypoxic conditions (1% O2) or ambient O2
[2] = molecular target: β-catenin (mouse (endogenous in KP tumor-propagating cells)) (UniProt Q02248); assay: proximity ligation; RUVBL2-β-catenin proximity ligation in tumor-propagating cells (TPCs), treated with vehicle or EHMT2 inhibitor; DAPI counterstain

Chains of the proteins cited; added tags and fusions are not shown.
UniProt Q9Y230: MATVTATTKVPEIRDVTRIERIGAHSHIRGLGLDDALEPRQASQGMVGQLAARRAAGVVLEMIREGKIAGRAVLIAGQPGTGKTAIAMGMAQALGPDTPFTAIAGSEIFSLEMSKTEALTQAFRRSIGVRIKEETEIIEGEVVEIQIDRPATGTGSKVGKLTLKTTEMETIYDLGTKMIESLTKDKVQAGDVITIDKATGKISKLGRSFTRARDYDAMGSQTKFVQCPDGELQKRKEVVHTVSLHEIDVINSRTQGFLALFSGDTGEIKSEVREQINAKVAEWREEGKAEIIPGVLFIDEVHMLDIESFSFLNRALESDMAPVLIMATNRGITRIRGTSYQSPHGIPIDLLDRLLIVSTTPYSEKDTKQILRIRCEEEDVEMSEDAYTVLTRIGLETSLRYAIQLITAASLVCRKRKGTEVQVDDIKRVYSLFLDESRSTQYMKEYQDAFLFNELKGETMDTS
UniProt Q02248: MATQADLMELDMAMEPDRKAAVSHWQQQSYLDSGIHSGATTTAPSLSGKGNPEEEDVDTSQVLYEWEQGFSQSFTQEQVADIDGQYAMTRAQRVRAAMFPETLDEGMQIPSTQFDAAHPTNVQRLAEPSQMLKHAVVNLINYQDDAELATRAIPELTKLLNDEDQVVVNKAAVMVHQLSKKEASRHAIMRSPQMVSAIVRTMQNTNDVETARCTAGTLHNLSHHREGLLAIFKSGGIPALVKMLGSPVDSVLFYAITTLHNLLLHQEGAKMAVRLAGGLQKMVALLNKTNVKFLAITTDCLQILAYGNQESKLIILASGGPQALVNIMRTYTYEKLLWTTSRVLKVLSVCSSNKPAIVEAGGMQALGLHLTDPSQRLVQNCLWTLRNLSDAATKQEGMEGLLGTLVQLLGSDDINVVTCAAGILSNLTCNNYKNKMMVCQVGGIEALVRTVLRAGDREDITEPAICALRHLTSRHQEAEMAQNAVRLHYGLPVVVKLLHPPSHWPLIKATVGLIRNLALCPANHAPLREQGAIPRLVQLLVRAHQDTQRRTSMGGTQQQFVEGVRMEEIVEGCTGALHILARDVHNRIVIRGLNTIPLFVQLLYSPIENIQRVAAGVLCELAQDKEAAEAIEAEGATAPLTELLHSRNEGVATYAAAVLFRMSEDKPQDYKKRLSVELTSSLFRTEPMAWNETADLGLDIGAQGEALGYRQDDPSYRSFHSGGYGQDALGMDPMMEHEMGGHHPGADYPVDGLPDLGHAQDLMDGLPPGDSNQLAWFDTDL
UniProt Q16665: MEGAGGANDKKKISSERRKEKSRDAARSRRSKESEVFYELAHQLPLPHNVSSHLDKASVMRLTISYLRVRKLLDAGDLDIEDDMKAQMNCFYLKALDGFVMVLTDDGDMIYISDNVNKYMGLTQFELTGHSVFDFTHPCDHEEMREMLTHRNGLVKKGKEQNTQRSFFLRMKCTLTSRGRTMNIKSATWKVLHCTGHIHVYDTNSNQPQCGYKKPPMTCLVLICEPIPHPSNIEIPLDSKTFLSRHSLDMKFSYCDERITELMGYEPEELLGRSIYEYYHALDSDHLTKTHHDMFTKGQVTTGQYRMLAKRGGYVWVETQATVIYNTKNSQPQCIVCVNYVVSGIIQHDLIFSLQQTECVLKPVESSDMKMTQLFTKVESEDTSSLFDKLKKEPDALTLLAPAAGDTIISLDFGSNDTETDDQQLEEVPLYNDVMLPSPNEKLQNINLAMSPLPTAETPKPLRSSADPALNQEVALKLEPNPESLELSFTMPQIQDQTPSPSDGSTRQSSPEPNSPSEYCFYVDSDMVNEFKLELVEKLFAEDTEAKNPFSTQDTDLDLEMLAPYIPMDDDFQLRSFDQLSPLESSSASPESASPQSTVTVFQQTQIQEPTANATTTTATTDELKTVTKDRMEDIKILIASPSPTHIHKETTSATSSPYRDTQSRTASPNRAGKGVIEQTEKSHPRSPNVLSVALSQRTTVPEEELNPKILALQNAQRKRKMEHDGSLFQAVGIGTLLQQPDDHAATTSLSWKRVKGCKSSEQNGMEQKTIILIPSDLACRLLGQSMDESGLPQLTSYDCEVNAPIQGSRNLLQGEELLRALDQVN
UniProt P35222: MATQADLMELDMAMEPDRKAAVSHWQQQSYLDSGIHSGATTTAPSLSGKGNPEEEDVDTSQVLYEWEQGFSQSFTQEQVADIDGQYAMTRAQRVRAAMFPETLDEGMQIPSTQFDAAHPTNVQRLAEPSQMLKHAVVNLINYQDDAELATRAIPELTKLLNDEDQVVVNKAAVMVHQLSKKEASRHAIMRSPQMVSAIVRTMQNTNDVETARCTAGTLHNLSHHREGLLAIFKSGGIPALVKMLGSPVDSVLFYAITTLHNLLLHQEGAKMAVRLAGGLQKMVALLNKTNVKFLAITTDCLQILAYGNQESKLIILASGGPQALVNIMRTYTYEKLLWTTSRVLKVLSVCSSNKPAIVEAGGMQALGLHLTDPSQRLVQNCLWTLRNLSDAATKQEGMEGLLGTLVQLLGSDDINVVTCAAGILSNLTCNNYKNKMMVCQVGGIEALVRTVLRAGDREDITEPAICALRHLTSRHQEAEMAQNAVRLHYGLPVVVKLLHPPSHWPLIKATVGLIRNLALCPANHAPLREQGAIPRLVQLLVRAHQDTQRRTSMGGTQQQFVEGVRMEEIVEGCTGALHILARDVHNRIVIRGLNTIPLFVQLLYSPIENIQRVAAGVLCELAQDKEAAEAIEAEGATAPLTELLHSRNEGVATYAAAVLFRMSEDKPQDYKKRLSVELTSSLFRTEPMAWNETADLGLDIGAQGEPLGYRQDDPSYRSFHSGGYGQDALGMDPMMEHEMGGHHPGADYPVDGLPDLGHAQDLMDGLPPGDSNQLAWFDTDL
UniProt Q9WTM5: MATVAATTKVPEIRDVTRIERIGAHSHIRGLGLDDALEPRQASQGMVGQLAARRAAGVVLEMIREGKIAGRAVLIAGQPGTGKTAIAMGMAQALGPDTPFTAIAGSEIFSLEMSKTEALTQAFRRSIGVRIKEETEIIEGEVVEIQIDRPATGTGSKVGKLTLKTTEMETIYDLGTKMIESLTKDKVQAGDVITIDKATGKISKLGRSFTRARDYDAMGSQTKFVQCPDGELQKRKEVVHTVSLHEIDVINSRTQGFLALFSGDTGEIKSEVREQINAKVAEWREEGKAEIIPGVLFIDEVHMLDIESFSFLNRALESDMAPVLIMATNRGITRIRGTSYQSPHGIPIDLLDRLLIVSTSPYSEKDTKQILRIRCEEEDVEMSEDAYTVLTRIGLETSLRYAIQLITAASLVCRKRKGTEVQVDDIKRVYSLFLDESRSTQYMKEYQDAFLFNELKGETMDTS

binding [1]	binding [2]	Substance
binds	–	HIF1-α (from UniProt Q16665 1-826)
binds	–	β-catenin (from UniProt P35222 1-781)
–	binds	RUVBL2 (from UniProt Q9WTM5 1-463)
